These are yes or no findings as the source states them, for the method shown. A result given as binding can be weak or reduced; the word gives no strength.
How the values were obtained:
HaloTag-mTagBFP-TPOR [1] = target: HaloTag-mTagBFP-TPOR (UniProt P40238); experiment: FRAP on micropatterned cells
HaloTag-mTagBFP-TPOR [2] = target: HaloTag-mTagBFP-TPOR (UniProt P40238); experiment: live cell micropatterning

Protein sequences, listed by entry. Tags and fused reporters are not part of them. Lines headed by an entry give the natural chain unless they say otherwise; changes in a name come on top. Residues count along the entry.
UniProt P40238, residues 26-635: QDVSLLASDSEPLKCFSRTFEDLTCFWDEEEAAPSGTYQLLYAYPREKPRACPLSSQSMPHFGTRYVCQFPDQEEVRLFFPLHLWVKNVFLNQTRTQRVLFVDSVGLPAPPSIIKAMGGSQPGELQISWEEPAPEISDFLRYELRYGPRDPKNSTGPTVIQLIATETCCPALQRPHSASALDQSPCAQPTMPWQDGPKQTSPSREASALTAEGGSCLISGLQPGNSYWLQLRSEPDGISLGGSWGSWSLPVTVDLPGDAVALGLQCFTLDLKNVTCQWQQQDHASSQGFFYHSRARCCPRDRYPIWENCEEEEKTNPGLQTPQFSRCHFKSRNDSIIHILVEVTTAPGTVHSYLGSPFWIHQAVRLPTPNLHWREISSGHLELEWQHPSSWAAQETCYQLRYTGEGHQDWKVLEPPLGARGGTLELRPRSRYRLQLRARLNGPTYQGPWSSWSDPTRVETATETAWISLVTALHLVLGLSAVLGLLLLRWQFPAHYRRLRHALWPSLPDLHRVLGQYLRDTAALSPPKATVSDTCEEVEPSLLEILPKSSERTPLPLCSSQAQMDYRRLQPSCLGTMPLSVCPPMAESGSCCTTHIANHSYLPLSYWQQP
UniProt P52333: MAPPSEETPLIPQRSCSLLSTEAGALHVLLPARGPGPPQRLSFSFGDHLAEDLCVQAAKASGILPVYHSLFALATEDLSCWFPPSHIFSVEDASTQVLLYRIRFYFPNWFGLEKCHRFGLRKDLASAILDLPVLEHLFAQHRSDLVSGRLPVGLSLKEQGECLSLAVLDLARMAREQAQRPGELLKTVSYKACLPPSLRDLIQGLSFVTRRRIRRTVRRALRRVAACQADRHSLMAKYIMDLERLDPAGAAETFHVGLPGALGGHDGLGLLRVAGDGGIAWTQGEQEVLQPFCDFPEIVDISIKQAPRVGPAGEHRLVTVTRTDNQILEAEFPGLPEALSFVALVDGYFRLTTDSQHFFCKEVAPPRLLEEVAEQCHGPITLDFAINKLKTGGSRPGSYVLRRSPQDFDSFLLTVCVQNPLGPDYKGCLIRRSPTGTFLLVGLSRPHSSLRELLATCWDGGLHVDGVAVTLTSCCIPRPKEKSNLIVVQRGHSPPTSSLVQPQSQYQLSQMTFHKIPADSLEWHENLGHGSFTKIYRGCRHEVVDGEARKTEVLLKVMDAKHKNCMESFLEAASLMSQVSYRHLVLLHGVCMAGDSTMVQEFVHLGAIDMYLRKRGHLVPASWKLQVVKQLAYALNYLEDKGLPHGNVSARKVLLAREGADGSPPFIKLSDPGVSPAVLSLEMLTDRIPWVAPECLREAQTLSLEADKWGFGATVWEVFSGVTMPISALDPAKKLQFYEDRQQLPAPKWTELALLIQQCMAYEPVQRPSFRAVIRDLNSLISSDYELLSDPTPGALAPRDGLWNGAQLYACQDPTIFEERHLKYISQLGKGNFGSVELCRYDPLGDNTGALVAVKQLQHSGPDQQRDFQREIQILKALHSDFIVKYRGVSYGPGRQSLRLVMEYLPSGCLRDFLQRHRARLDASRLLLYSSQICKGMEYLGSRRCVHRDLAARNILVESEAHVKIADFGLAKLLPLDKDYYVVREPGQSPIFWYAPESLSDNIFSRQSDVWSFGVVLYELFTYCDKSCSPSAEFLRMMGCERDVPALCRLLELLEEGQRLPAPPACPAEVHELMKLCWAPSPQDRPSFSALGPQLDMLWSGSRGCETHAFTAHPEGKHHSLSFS

binding (HaloTag-mTagBFP-TPOR [1]): binds
binding (HaloTag-mTagBFP-TPOR [2]): binds
Substance: JAK3-FS (FERM/SH2 domains of JAK3 with mEGFP) (from UniProt P52333) (domain or fragment)

— article doi:10.1101/2023.10.04.560821
